# Reference: patent publication EP4663661A1 (Hainan Simcere Zaiming Pharmaceutical Co., Ltd., dated 2025)
# Residue numbers refer to the chain shown, from its start. These are yes or no findings as the source states them, for the method shown. Some results given as binding are weak or reduced against the parent protein; the word gives no strength. Where a sequence is shown, tags or fusion partners need not be part of it.
# T1: his-tagged human CDH6 extracellular region protein (hCDH6 ECD-his) (human) (UniProt P55285)
# T1 sequence: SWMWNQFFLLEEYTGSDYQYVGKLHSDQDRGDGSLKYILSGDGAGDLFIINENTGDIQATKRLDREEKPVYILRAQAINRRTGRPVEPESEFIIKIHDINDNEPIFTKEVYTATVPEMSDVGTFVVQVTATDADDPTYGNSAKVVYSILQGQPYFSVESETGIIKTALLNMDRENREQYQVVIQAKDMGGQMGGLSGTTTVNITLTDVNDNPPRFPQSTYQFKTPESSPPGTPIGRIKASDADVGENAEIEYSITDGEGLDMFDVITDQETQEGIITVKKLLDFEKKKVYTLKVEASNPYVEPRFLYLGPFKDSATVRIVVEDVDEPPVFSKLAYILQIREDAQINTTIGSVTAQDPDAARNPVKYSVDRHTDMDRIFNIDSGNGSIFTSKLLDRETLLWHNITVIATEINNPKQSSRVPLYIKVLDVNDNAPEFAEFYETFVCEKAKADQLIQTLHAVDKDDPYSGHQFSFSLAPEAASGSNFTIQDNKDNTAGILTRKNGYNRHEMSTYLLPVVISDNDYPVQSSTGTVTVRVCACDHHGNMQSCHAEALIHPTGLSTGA
# B1: hCDH6-14-H3L1 (antibody, human IgG1, kappa, V domains shown)
# VH: EIQLVQSGAEVKKPGASVKVSCKASGYTFTDNYINWVRQAPGQRLEWMGWIYPGTGNSYYNEKFKGRVTLTVDTSASTAYMELSSLRSEDTAVYYCASSYGDSFDYWGQGTTVTVSS
# VL: DIQMTQSPSSLSASVGDRVTITCRASQDIRNYLNWYQQKPGKAFKLLISYTSRLHSGVPSRFSGSGSGTDFTFTISSLQPEDIATYYCQQYSQLPWTFGGGTKVEIKR
# B2: hCDH6-14-H3L3 (antibody, human IgG1, kappa, V domains shown)
# VH: B1 VH
# VL: DIVMTQSPDSLAVSLGERATINCRASQDIRNYLNWYQQKPGQTPKLLISYTSRLHSGVPDRFSGSGSGTDFTLTISSLQAEDVAVYYCQQYSQLPWTFGGGTKVEIKR
# B3: hCDH6-14-H4L1 (antibody, human IgG1, kappa, V domains shown)
# VH: B1 VH with I2V, R44G, L70I
# VL: B1 VL
# B4: hCDH6-14-H3L2 (antibody, human IgG1, kappa, V domains shown)
# VH: B1 VH
# VL: B1 VL with K42G, F44P
# B5: hCDH6-14-H6L1 (antibody, human IgG1, kappa, V domains shown)
# VH: B1 VH with I2V, L70I, Y95L
# VL: B1 VL
# B6: hCDH6-14-H4L2 (antibody, human IgG1, kappa, V domains shown)
# VH: B1 VH with I2V, R44G, L70I
# VL: B1 VL with K42G, F44P
# B7: hCDH6-14-H6L2 (antibody, human IgG1, kappa, V domains shown)
# VH: B1 VH with I2V, L70I, Y95L
# VL: B1 VL with K42G, F44P
# B8: hCDH6-6-H1L3 (antibody, human IgG1, kappa, V domains shown)
# VH: EVQLVQSGAEVKKPGASVKVSCKASGYTFTDYYMAWVRQAPGQGLEWMGYIFPNSGGTDYSQKFKGRVTMTVDKSTSTVYMELSSLRSEDTAVYYCARELGADYGDYYAMDHWGQGTTVTVSS
# VL: DIQMTQSPSSLSASVGDRVTITCRASENIDSYLAWYQQKPGKSPQLLVYSATLLADGVPSRFSGSGSGTDYTLTISSLQPEDFATYYCQHYYRTPPTFGQGTKLEIKR
# B9: hCDH6-6-H1L4 (antibody, human IgG1, kappa, V domains shown)
# VH: B8 VH
# VL: B8 VL with Q45K, T85R
# B10: hCDH6-6-H2L3 (antibody, human IgG1, kappa, V domains shown)
# VH: B8 VH with M70L
# VL: B8 VL
# B11: hCDH6-6-H1L5 (antibody, human IgG1, kappa, V domains shown)
# VH: B8 VH
# VL: DIVMTQSPLSLPVTPGEPASISCRASENIDSYLAWYLQKPGKSPQLLVYSATLLADGVPDRFSGSGSGTDFTLKISRVEAEDVGVYYCQHYYRTPPTFGQGTKLEIKR
# B12: hCDH6-6-H3L2 (antibody, human IgG1, kappa, V domains shown)
# VH: B8 VH with G42R
# VL: B8 VL with Q45K
# B13: hCDH6-6-H3L5 (antibody, human IgG1, kappa, V domains shown)
# VH: B8 VH with G42R
# VL: B11 VL
# B14: hCDH6-6-H2L4 (antibody, human IgG1, kappa, V domains shown)
# VH: B8 VH with M70L
# VL: B8 VL with Q45K, T85R
# B15: hCDH6-6-H2L5 (antibody, human IgG1, kappa, V domains shown)
# VH: B8 VH with M70L
# VL: B11 VL
# B16: hCDH6-6-H3L3 (antibody, human IgG1, kappa, V domains shown)
# VH: B8 VH with G42R
# VL: B8 VL
# B17: hCDH6-6-H3L1 (antibody, human IgG1, kappa, V domains shown)
# VH: B8 VH with G42R
# VL: B8 VL with Q45K, V48L
# B18: hCDH6-6-H3L4 (antibody, human IgG1, kappa, V domains shown)
# VH: B8 VH with G42R
# VL: B8 VL with Q45K, T85R
# B19: hCDH6-1-H2L1 (antibody, human IgG1, kappa, V domains shown)
# VH: EVQLVQSGAEVKKPGSSVKVSCKASGYTFTNYWMHWVRQAPGQGLEWMGDIDPSHSETHYTQKFKDRVTITVDKSTSTAYMELSSLRSEDTAVYYCARGDLGRFDYWGQGTTVTVSS
# VL: DIVMTQSPDSLAVSLGERATINCRASESVSIHGTHLMHWYQQKPGQPPKLLIYAASNLESGVPDRFSGSGSETDFTLTISSLQAEDVAVYYCQQSFEDPWTFGGGTKVEIKR
# B20: hCDH6-1-H3L2 (antibody, human IgG1, kappa, V domains shown)
# VH: B19 VH with I70L
# VL: B19 VL with P44S
# B21: hCDH6-1-H3L1 (antibody, human IgG1, kappa, V domains shown)
# VH: B19 VH with I70L
# VL: B19 VL
# B22: hCDH6-1-H4L3 (antibody, human IgG1, kappa, V domains shown)
# VH: B19 VH with A40R
# VL: DIQMTQSPSSLSASVGDRVTITCRASESVSIHGTHLMHWYQQKPGKPPKLLIYAASNLESGVPSRFSGSGSETDFTFTISSLQPEDIATYYCQQSFEDPWTFGGGTKVEIKR
# B23: hCDH6-1-H2L2 (antibody, human IgG1, kappa, V domains shown)
# VH: B19 VH
# VL: B19 VL with P44S
# B24: hCDH6-1-H4L2 (antibody, human IgG1, kappa, V domains shown)
# VH: B19 VH with A40R
# VL: B19 VL with P44S
# B25: hCDH6-1-H4L1 (antibody, human IgG1, kappa, V domains shown)
# VH: B19 VH with A40R
# VL: B19 VL
# B26: hCDH6-1-H3L3 (antibody, human IgG1, kappa, V domains shown)
# VH: B19 VH with I70L
# VL: B22 VL
# Target: T1, his-tagged human CDH6 extracellular region protein (hCDH6 ECD-his) (human)
# Experiment: ELISA, antigen coated
row,binding,Binder
1,binds,B1
2,binds,B2
3,binds,B3
4,binds,B4
5,binds,B5
6,binds,B6
7,binds,B7
8,binds,B8
9,binds,B9
10,binds,B10
11,binds,B11
12,binds,B12
13,binds,B13
14,binds,B14
15,binds,B15
16,binds,B16
17,binds,B17
18,binds,B18
19,binds,B19
20,binds,B20
21,binds,B21
22,binds,B22
23,binds,B23
24,binds,B24
25,binds,B25
26,binds,B26
